# Results from the supplement of paper PMC7666118.
# The chains behind the UniProt entries cited, without tags or fusion partners. Where a name states a change or a piece, a line headed by the entry shows the natural chain unless it says otherwise.
# UniProt Q96BJ3: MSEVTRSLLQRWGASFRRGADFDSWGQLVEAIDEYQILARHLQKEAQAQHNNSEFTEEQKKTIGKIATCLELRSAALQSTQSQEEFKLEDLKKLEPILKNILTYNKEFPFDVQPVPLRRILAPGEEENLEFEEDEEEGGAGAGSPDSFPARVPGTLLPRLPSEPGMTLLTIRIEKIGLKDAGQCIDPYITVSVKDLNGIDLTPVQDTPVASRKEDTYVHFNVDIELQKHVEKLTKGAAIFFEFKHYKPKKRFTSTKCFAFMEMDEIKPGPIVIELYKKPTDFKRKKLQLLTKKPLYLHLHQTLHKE
# UniProt Q5VTE6: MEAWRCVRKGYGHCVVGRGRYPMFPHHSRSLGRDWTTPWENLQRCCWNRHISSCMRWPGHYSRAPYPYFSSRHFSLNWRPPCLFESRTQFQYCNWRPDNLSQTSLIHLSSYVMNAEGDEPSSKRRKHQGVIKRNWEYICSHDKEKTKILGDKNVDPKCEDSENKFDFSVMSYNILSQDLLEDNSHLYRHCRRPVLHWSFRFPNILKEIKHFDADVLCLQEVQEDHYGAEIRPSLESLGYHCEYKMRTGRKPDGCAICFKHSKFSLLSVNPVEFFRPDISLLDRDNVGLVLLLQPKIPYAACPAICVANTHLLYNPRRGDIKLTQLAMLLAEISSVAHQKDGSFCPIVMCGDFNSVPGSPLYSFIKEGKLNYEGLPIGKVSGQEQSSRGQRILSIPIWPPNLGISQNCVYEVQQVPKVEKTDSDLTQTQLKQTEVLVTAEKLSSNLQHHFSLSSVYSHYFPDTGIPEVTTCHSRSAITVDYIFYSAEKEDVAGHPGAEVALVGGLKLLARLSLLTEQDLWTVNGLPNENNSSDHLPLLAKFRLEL
# UniProt Q9NZ32, whole entry: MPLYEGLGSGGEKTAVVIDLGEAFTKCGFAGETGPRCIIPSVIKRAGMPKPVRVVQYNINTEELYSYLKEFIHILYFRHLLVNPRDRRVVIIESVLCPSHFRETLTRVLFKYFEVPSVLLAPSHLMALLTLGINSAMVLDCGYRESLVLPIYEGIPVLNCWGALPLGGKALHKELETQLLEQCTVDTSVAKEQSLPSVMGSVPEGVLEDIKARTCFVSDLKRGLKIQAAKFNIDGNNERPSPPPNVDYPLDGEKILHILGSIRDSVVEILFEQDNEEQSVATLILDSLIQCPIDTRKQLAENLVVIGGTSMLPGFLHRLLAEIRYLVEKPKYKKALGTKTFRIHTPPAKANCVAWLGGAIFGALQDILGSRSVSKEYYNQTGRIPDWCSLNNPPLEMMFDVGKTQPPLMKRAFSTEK
# UniProt Q9UKV3: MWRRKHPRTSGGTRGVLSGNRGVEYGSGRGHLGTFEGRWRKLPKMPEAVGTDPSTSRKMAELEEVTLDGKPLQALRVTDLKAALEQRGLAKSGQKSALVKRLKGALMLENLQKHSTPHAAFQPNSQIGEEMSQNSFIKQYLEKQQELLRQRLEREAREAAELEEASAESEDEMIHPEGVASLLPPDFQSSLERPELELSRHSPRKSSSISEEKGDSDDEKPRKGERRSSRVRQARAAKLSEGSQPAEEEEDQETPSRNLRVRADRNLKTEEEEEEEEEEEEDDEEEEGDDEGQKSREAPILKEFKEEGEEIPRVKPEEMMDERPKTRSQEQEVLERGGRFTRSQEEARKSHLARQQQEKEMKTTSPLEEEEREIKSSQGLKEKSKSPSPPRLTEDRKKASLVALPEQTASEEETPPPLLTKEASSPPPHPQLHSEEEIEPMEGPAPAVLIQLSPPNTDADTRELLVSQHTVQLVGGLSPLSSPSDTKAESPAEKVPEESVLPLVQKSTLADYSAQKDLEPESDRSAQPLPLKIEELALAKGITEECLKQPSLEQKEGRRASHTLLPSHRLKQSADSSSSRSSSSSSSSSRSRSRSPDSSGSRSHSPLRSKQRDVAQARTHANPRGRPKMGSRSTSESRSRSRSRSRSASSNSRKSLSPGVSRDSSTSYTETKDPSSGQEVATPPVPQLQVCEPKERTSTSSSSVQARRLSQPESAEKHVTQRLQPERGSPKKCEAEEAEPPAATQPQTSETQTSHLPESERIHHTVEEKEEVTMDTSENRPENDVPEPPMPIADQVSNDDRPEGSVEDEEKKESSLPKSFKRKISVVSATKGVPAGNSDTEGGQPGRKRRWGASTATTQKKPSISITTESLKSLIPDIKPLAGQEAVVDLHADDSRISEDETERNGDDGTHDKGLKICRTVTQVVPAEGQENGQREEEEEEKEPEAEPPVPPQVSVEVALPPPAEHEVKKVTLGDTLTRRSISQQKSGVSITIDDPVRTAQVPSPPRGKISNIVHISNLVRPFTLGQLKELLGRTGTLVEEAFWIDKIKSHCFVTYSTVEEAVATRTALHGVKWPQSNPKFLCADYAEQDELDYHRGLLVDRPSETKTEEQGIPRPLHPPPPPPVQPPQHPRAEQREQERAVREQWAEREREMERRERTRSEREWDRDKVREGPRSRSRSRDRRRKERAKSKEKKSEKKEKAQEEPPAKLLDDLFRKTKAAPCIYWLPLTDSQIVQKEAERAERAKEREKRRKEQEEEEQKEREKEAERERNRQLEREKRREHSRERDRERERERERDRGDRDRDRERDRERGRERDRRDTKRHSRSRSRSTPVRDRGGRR
# UniProt P53680: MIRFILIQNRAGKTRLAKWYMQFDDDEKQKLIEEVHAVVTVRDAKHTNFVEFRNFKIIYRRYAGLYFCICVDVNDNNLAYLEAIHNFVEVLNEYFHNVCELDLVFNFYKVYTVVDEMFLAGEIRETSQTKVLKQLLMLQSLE
# UniProt Q9NX46: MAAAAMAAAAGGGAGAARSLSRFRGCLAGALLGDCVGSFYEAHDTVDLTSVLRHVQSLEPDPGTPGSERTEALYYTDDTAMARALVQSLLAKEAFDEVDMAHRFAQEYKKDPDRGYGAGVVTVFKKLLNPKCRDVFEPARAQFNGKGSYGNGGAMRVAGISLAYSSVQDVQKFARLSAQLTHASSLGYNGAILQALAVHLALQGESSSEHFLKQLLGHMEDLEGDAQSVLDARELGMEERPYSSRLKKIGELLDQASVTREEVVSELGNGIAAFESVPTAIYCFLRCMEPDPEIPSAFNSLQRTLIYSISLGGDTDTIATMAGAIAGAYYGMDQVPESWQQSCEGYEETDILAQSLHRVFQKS
# UniProt Q02410: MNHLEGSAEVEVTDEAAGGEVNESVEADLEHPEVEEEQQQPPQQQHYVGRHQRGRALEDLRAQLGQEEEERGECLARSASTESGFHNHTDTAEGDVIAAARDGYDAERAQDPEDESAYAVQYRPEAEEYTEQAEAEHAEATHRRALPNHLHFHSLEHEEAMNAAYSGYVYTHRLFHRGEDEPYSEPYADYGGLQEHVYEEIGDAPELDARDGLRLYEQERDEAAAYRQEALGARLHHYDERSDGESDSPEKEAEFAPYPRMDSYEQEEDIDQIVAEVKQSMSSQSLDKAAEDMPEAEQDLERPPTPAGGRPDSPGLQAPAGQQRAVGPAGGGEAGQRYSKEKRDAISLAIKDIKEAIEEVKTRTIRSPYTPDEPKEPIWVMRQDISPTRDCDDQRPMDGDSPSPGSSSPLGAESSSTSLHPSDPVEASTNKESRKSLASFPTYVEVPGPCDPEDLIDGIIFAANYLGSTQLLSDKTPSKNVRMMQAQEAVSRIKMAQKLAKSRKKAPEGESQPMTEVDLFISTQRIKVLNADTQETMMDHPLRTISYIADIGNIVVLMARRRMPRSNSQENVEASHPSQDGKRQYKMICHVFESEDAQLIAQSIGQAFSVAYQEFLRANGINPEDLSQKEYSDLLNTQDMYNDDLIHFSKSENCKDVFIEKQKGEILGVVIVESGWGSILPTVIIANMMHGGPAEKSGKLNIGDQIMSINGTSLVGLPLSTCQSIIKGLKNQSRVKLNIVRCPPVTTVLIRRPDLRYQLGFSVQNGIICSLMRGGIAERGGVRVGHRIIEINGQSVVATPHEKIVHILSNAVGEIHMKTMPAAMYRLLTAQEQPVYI
# UniProt Q7Z7L7: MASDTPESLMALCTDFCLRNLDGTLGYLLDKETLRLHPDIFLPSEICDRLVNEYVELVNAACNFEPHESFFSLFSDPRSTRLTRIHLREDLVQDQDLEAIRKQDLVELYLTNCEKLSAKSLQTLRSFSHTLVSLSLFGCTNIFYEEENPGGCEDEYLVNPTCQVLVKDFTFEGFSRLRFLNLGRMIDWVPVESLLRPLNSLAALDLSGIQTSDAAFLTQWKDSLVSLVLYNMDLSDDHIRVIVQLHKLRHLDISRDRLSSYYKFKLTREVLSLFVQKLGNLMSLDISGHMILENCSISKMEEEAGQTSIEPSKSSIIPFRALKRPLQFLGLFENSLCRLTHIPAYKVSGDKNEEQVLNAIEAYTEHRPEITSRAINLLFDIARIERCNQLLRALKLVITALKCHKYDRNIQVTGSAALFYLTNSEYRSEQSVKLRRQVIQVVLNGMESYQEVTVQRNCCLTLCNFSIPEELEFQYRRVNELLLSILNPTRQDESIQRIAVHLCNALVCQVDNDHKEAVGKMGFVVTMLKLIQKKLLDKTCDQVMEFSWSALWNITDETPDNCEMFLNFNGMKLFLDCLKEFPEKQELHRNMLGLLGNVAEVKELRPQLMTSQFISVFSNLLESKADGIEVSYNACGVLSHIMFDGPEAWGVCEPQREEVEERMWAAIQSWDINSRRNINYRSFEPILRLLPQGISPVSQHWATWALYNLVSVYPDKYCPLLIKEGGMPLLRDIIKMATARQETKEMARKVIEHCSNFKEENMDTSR
# UniProt Q5BKZ1: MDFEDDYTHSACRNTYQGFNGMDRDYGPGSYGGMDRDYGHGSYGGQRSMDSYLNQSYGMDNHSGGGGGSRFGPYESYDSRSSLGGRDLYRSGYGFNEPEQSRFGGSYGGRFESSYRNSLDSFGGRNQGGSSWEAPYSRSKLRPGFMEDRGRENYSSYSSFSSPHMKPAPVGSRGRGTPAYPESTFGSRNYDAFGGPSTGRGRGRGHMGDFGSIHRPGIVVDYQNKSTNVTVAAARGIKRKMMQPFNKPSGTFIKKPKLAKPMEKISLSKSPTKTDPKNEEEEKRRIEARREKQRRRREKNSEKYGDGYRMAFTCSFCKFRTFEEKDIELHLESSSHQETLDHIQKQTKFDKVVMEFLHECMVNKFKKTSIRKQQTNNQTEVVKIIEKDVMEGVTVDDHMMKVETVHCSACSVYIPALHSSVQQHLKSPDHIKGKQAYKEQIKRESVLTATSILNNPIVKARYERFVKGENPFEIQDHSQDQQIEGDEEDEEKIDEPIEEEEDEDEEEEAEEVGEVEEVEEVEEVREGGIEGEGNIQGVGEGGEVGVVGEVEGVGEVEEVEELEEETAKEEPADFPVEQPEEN
# UniProt O43257, whole entry: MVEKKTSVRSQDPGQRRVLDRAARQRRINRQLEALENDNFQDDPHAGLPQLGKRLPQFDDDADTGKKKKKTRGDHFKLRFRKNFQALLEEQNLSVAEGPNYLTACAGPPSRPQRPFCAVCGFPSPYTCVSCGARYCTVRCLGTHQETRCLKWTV
# UniProt Q9UL40: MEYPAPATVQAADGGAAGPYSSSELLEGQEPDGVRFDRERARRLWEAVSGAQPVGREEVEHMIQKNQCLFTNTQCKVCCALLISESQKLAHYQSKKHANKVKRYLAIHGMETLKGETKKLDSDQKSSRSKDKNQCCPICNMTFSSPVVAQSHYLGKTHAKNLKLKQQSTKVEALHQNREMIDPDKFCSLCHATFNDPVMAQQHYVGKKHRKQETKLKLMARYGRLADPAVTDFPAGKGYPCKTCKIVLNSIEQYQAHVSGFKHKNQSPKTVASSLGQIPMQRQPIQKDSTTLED
# UniProt Q9UHR6: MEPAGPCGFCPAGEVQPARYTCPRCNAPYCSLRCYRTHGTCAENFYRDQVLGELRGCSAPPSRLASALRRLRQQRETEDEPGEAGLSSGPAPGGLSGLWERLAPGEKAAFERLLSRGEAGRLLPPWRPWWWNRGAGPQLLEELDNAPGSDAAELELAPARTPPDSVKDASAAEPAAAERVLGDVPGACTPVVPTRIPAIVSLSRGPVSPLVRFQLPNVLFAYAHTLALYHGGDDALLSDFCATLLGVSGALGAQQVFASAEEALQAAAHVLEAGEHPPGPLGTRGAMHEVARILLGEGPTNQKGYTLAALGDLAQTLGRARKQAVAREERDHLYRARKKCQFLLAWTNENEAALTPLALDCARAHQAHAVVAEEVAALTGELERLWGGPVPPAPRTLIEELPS
# UniProt Q96NB3: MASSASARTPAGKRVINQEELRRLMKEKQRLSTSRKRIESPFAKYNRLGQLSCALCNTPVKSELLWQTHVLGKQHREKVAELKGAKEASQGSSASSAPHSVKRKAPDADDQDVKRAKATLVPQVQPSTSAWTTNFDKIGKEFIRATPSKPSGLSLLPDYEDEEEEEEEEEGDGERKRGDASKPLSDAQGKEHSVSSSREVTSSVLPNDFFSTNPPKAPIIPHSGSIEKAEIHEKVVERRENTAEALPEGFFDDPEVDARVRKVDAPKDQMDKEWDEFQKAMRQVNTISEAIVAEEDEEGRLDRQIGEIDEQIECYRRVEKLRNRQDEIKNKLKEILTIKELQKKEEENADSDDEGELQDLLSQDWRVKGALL
# Some of the results follow.
# Compound: Nc1nc2c(ncn2[C@@H]2O[C@H](COP(=O)(O)OP(=O)(O)OP(=O)(O)O)[C@@H](O)[C@H]2O)c(=O)[nH]1
# Assay: dose-dependent thermal stabilisation call (2D-TPP, DLPTP, 10% FDR) (binary (1 = stabilised)); higher = stabilised by the compound
# Settings: system: Jurkat gel-filtered lysate; concentration range 1-500 µM
row,Target,dose-dependent thermal stabilisation call
1,AIDA (UniProt Q96BJ3),inactive: 0
2,ACTR2 (UniProt P61160),active: 1
3,ADRM1 (UniProt Q16186),inactive: 0
4,ABR (UniProt Q12979),active: 1
5,ACBD3 (UniProt Q9H3P7),inactive: 0
6,ANKRD12 (UniProt Q6UB98),inactive: 0
7,AMPD3 (UniProt Q01432),inactive: 0
8,AHSG (UniProt P02765),inactive: 0
9,ANGEL2 (UniProt Q5VTE6),inactive: 0
10,ADAT3 (UniProt Q96EY9),inactive: 0
11,ACTR10 (UniProt Q9NZ32),inactive: 0
12,ACIN1 (UniProt Q9UKV3),inactive: 0
13,ARFGAP2 (UniProt Q8N6H7),inactive: 0
14,ARGLU1 (UniProt Q9NWB6),active: 1
15,ADA2 (UniProt Q9NZK5),inactive: 0
16,AP2S1 (UniProt P53680),inactive: 0
17,AGL (UniProt P35573),inactive: 0
18,ADPRHL2 (UniProt Q9NX46),inactive: 0
19,APBA1 (UniProt Q02410),inactive: 0

# Some of the entries above, reformatted:
row	Target	dose-dependent thermal stabilisation call
12	ACIN1 (UniProt Q9UKV3)	inactive: 0
13	ARFGAP2 (UniProt Q8N6H7)	inactive: 0

# Compound: COc1ccc(Cn2ccc3ccc(C(=O)NO)cc32)cc1
# Assay: as above
# Settings: system: HL-60 intact cells; concentration range 0.04-10 µM
row,Target,dose-dependent thermal stabilisation call
1,ZYG11BL (UniProt Q7Z7L7),inactive: 0
2,ZWILCH (UniProt Q9H900),inactive: 0
3,ch-TOG,inactive: 0
4,ZNHIT6 (UniProt Q9NWK9),inactive: 0
5,ZNF667 (UniProt Q5HYK9),inactive: 0
6,ZYX (UniProt Q15942),inactive: 0
7,ZNF787 (UniProt Q6DD87),inactive: 0
8,ZNF629 (UniProt Q9UEG4),inactive: 0
9,ZNF326 (UniProt Q5BKZ1),inactive: 0
10,ZNHIT1 (UniProt O43257),inactive: 0
11,ZNF346 (UniProt Q9UL40),inactive: 0
12,ZW10 (UniProt O43264),inactive: 0
13,ZNF511 (UniProt Q8NB15),inactive: 0
14,ZNHIT2 (UniProt Q9UHR6),inactive: 0
15,mTOR (UniProt P42345),inactive: 0
16,ZNF516 (UniProt Q92618),inactive: 0
17,ZNF830 (UniProt Q96NB3),inactive: 0
